These are yes or no findings as the source states them, for the method shown. Binding seen in cells or lysates may run through a third protein. Binding calls can cover weak binding; strength is not graded here. Sequences can lack the tags named with a protein.

The target of this assay is T1, SIAH1 with a C-terminal FLAG epitope tag (UniProt Q8IUQ4).
T1 sequence: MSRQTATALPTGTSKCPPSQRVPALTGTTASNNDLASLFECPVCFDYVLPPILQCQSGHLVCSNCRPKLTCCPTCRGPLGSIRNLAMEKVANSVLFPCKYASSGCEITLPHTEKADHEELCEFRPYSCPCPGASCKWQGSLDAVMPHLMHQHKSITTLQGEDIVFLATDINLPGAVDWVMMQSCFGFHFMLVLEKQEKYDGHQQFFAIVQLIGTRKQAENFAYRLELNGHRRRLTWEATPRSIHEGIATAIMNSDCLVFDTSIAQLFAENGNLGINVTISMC
The assay is described as follows: co-IP; HeLa cells treated with MG132 and co-transfected with SIAH1-FLAG and MyD88-myc; total cell lysates immunoprecipitated with anti-FLAG or an isotype control antibody; western blot for MyD88.

On to MyD88 with a C-terminal myc epitope, for which the binding entry was “binds”.

For the origin of these results see publication PMC7033647.
